Test results reported in patent US7858585B2, “Hydrogels and uses thereof” (University of Delaware, priority 2005, dated 2010).
The name of at least one read-out is uncertain.

Assay: Oscillatory rheology of 0.5 wt % MAX1 and HPL8 hydrogels in DMEM, pH 7.4, 37° C.
Type: physicochemical
Details: after 1000% strain for 30 seconds, strain reduced to 0.2%
Experimental: To a vial containing 1 mg of peptide, 100 μL of 25 mM HEPES, pH 7.4 was added resulting in a soluble 1 wt % peptide solution. To this solution, an equal volume of DMEM supplemented with 25 mM HEPES, pH 7.4 was added to initiate self-assembly, resulting in a 0.5 wt % hydrogel. All hydrogels were prepared by this method unless otherwise stated.
Oscillatory rheology experiments were performed on a TA Instruments rheometer (AR 2000) with a 25 mm diameter stainless steel parallel plate geometry with a gap height of 0.5 mm. All measurements were acquired at 37° C. For dynamic time sweeps (DTS) the hydrogels were prepared as stated above and quickly transferred to the rheometer where the storage modulus (G′) was monitored as a function of time, frequency=6 rad. sec-1 and strain=0.2%. For the shear thinning experiments, a DTS was preformed for 10 min at which time 1000% stain was applied for 30 seconds to shear thin the material. After which time, the strain was decreased to 0.2% and G′ monitored as a function of time. Dynamic frequency, dynamic strain and dynamic time sweep measurements measuring both G′ and the loss modulus (G″) are provided in FIG. 36.

With VKVKVKVKV^DPPTKVEVKVKV-NH2 [HPL8] the “storage modulus within the first 5 seconds of recovery” value was ~200 Pa.
